# Test results as given in the supplement of paper PMC5949888.
# ± gives the standard deviation of the averaged measurements. Most values lie at the floor of the assay. Slopes are relative: functional sequences can read slightly below zero.
# Tested on: Saccharomyces cerevisiae PS128 hsf1 delta, HSF1(1-493) fusion
# Test: growth estimate (transactivation domain function in HSF1 fusion, heat-shock survival) (a.u. (slope of normalised read count over time)); higher = stronger growth at 37°C, i.e. more transactivation activity
# Conditions: library: random library
row,Substance,growth estimate
1,CYGHGPLEVFGGDL,-0.248
2,FGAHNERN,< -0.25
3,SDC,< -0.25
4,LNRRGLRESVQFRLQI,< -0.25
5,NKGRCGQRIAHFITTVVIR,< -0.25
6,CHVSVHHVNLGTGGGCSMRQ,< -0.25
7,VYSIATP,< -0.25
8,QPTGEQLVPFFAYTRKHTPR,< -0.25
9,CQFCSNCK,< -0.25
10,RHGTLRDLR,< -0.25
11,SKTR,< -0.25
12,KKSWRGCARPY,< -0.25
13,SKLTLRV,< -0.25
14,FREITRPFPLSSASP,< -0.25
15,SYMLAGSLGSEGVGRQWLAS,< -0.25
16,RGVAKDARYTVNPLALLGTT,< -0.25
17,ESKYLGF,< -0.25
18,EEIFRRFYLFR,< -0.25
19,SLVLGRS,< -0.25
20,LSAFELAAPVSGHATSAPPR,< -0.25
21,RRVRLRR,< -0.25
22,PSFVRGYTL,< -0.25
23,APIQT,< -0.25

row,Substance,growth estimate
1,VYAARRKASVL,< -0.253
2,QLDLC,< -0.25
3,GVRALFSAGVSSAIVDRPSS,< -0.25
4,ISNPWWHTPRIA,< -0.25
5,DIMCGRSN,< -0.25
6,VHRSVRSIISRIGRYDA,-0.168
7,GLQSPRRSYRDDTLHWVDDV,-0.246
8,KEVW,< -0.25
9,NYARATRVRTSHQNVVRGSN,< -0.25
10,YTFLQTRNYHRSYQFEVFIR,< -0.25
11,LSDVREC,< -0.25
12,TTQPDRLSSGVNRWMLSGQI,< -0.25
13,LYNSRWFKMRFRRASVSECG,< -0.25
14,PWIHQWSHDLISSWLVCSFK,< -0.25
15,FSEL,< -0.25
16,SLIRRSDLMH,< -0.25
17,GVRADRLYVQKLIHS,< -0.25
18,GPCPQLKLSSGPVLRQAYGA,< -0.25
19,INDPWCSRTPPCVLRSLHQA,< -0.25
20,NPPGNSSES,< -0.25
21,IRGIWENNESYLSSLL,< -0.25
22,NQNTSEVCVAATTHPVGIYP,< -0.25
23,FRALCWTRWLRITFYQAGLS,< -0.25

# Pulled one by one from the entries so far, seven records:
row,Substance,growth estimate
18,EEIFRRFYLFR,< -0.25
20,LSAFELAAPVSGHATSAPPR,< -0.25
21,IRGIWENNESYLSSLL,< -0.25
4,LNRRGLRESVQFRLQI,< -0.25
2,QLDLC,< -0.25
23,APIQT,< -0.25
5,DIMCGRSN,< -0.25

# Next part:

row,Substance,growth estimate
1,DSIKSG,< -0.25
2,TLCMYVGLMDPGRSPLRWG,< -0.25
3,SDEQIVGVGPLAY,< -0.25
4,EPSNSAIGKSSTQTSMVTLP,< -0.25
5,SKDRQKLWNANW,-0.231
6,LLFSLLIEYLHVVSHRNQPY,< -0.25
7,TGIHL,< -0.25
8,LVAYAMRVGAVLREVNLSWF,< -0.25
9,FPSLEVRLENVQLCRCASYP,< -0.25
10,VGSLPMDSI,< -0.25
11,DLDRLLYDAWREGCFQWVPE,5.71
12,PTPDVKSVICLHLRGYTKTR,< -0.25
13,GKVQGVVRTLAIVPGKVGGP,-0.203
14,LASVSPRAWYSLSSLVYQTE,-0.0864
15,FCSGCCSEKVTGSGSSGYKL,< -0.25
16,VQGLEC,< -0.25
17,ANLSHSDLLPCLSFQNLASR,< -0.25
18,SKIRPHNPFQAPRKPLANWP,< -0.25
19,TLTGAWFALSHVRGSLHPGT,< -0.25
20,GCYT,< -0.25
21,LIGACAWACCLRASGTCE,< -0.25
22,PFGKAIAYGMGFDAGRGGAS,< -0.25
23,LANLSERVGRTIKDL,< -0.25

row,Substance,growth estimate
1,LIDGRCRAYNRVRANHGRPY,< -0.25
2,YPQTACQPRPM,< -0.25
3,RFI,< -0.25
4,SQEVRVRLID,< -0.25
5,HTTIRYTIRLGSGMLVPSRC,< -0.25
6,LKVV,< -0.25
7,PLLLLRACIRGSDRVITFAR,< -0.25
8,LSKRVERGLKTVRRIGIFGG,< -0.25
9,DIIIDLC,< -0.25
10,ISSDPGIVES,< -0.25
11,EAIREDGRELLAFRHCPRTA,< -0.25
12,AAPLKMHLVTSLPLNAYGIA,< -0.25
13,ASGAS,< -0.25
14,VCTWTSRNRRP,< -0.25
15,RRSKINDEESVMNRVPRAQL,< -0.25
16,SGVKMEVVTVGT,< -0.25
17,RQIRKLIPATTELVSQYLQR,< -0.25
18,GELGTDGEQTLNRPWGDFTE,< -0.25
19,RKGSY,< -0.25
20,GDIGQRAEGKPAWDGVGAVP,< -0.25
21,VKMWICLFFGAAG,< -0.25
22,IRDQDTVTVIYRRFRGSSSG,< -0.25
23,TVQGLGEWVVDCGG,< -0.25

row,Substance,growth estimate
1,SRETYFELAFPSC,-0.169
2,RRTPREAEDLILRGSQRMQ,< -0.25
3,GSQNPQSWIMVIGRKRRRAS,< -0.25
4,HIDNLYKSS,< -0.25
5,FLSV,< -0.25
6,SRQLGPH,< -0.25
7,WSFSSPDPGCVRPPRSTRRA,< -0.25
8,MAIWGYAIPRRRDTSCGQGR,-0.0764
9,RVNGLSAP,< -0.25
10,LYFYTKRAMGGMDRGGMDSD,< -0.25
11,SQETPMHRRSVRLITITSGV,< -0.25
12,IKTGTVGSLRRTRGNTRGLL,< -0.25
13,IVA,-0.247 ± 0.0037
14,GELRAVVLYDHQMGSRARSA,< -0.25
15,ARPLVVRDQRRLALSSTTGS,< -0.25
16,VDVRFLLV,< -0.25
17,WECYPSN,< -0.25
18,SWAIHAGTSFAYVTIRANSD,< -0.25
19,NIHA,< -0.25
20,ISDIKKCTRSHDNTQRCSRL,< -0.25
21,FVHAAGAMVERDVESSRGPR,< -0.25
22,QLVDHDQSVCLHVTNFQGGW,-0.245
23,TYGSS,< -0.25

row,Substance,growth estimate
1,YGFARTSDRCLVLFRAGNSL,< -0.25
2,SAN,< -0.25
3,SVTRKLPYLGSKLEGAFERG,< -0.25
4,LNSSRRAQEALALAYDSDSG,< -0.25
5,MNILGDGASAINDVLSYSVT,< -0.25
6,ARRYSKKFRVGSPPGANCQV,< -0.25
7,LEGCVSPGASLRARNWFTSP,< -0.25
8,VMERRDQREIGMRACRTFRP,< -0.25
9,GIGRISNVGVPPDR,< -0.25
10,TIV,-0.248
11,IRQRTLEPLA,< -0.25
12,CNRS,< -0.25
13,GQFLDRRTDAARKEQSRDSP,< -0.25
14,CLKSPLQRG,< -0.25
15,TVKCPESQRVAIETQVPYAG,< -0.25
16,PDEQKTHPSTTRDEQFRFRL,< -0.25
17,VHQRSPPTAGSSSWIKVPDP,< -0.25
18,GTTSDHTCCNIKAIH,< -0.25
19,SPLCL,< -0.25
20,HRCTYNAQWGSGSRCTICLV,< -0.25
21,VCITTLQGLMPDGAVEGR,< -0.25
22,CTE,< -0.25
23,GVAQKGFLSTGRARDGCGEA,< -0.25

# 3 entries from above, with bars between the fields.
row | Substance | growth estimate
9 | GIGRISNVGVPPDR | < -0.25
12 | CNRS | < -0.25
13 | GQFLDRRTDAARKEQSRDSP | < -0.25

# Additional entries:

row,Substance,growth estimate
1,PYLRDLCQNPPVQ,< -0.25
2,SLRSHKQDHIQ,< -0.25
3,QAVI,< -0.25
4,MARGS,< -0.25
5,NGAMTTKSRKRARYCPLKRQ,< -0.25
6,LGFG,< -0.25
7,HGGSCE,< -0.25
8,RGRSR,< -0.25
9,HPTRGPHAD,< -0.25
10,RVGAS,< -0.25
11,LVSAR,< -0.25
12,SPSPPMIRHMFCKC,< -0.25
13,DMSSLPNQENAGVAPDLTAL,< -0.25
14,LLTYVAHDSL,< -0.25
15,THRTHKGGKPTTFCCDGSAL,< -0.25
16,PVMCGVSLTVHSRACLRSTT,< -0.25
17,ERVNRRVQNSFLVGAKRVST,< -0.25
18,SRFYSGTGRHQVLPAAK,< -0.25
19,IQVFHVSVRGTTGMESIVLL,< -0.25
20,GRAYPRVYGSDVSPRQNEAL,< -0.25
21,SPAG,< -0.25
22,FLGSGAEHSLTGPTILMD,< -0.25
